Source: PubChem BioAssay AID602196 (INSERM, 2012)

Screen: 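Modifiers of cisplatin sensitivity in A549 cells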
System: human A549 lung cancer cells
Knock-down reagent: siRNA pair against human genes
Duration: 48 h transfection before cisplatin; time from cisplatin to read-out not stated
Conditions: cisplatin at a dose killing half of control-siRNA cells; exact dose and duration not given
Measured: 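Cisplatin cell death as a shift from the 50% death seen with control siRNA; siRNAs toxic or growth-blocking alone scored 0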
Direction: two-siRNA summed score (-2 to +2): higher = both siRNAs protect from cisplatin killing; -2 means both sensitise
Call rule: 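Each siRNA scores 0 if harmful alone by LDH or WST-1, otherwise +1 if it reduces and -1 if it increases cisplatin killing; a gene is active when both siRNAs agree (sum +2 or -2)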
Meaning of the calls: active = both siRNAs shift cisplatin killing the same way; inactive = no consistent shift, or siRNA harmful alone
The whole screen tested about 23,000 reagents; this is a random part of them. Of all reagents, 455 (2%) got an active call. 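Active includes both protection and sensitisation; some change values fall well beyond the stated -50 to +50 range.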 Not all columns of the deposit are shown. The record does not give: the amount of reagent.

| target | two-siRNA summed score (-2 to +2) | Outcome |
| --- | --- | --- |
| LOC402709 | 0 | inactive |
| LOC401579 | 0 | inactive |
| TAF13 | 0 | inactive |
| LOC440252 | 0 | inactive |
| SIM1 | 0 | inactive |
| BPNT2 | 0 | inactive |
| LOC440940 | 0 | inactive |
| LOC400627 | 0 | inactive |
| CHAMP1 | 0 | inactive |
| LINC02687 | 1 | inactive |
| ANGPT4 | 0 | inactive |

Next part, starting with the last 2 of the part before.
| target | two-siRNA summed score (-2 to +2) | Outcome |
| --- | --- | --- |
| LINC02687 | 1 | inactive |
| ANGPT4 | 0 | inactive |
| CDH1 | 0 | inactive |
| PLCB3 | 0 | inactive |
| FCGR1BP | 0 | inactive |
| ARHGAP17 | 0 | inactive |
| GOLGA2P10 | 0 | inactive |
| UBE2M | 0 | inactive |
| LOC201140 | 1 | inactive |
| LOC441969 | 1 | inactive |
| LOC441333 | 0 | inactive |
| KCNQ4 | 0 | inactive |
| CASP3 | 0 | inactive |
| FAM169A-AS1 | 1 | inactive |
